The source of these data is the supplement of paper PMC4604168 (melanoma cell lines).

Some of the results follow. Many values rest on one well or one pass, so single values are uncertain.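 Cells were imaged in 1,536-well plates, and nuclei stained with an antibody against cleaved PARP were counted against all DNA-stained nuclei to give the apoptosis fraction. Screening doses were chosen to leave most cells alive, and resting and induced cleaved-PARP levels differ strongly between cell lines.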

The test system of one assay is WM3619. As to the kind of experiment: cleaved PARP positive nuclei fraction relative to DMSO control; melanoma cells; higher = more apoptosis. To be noted: library dose: low library concentration; 72 h.
As for `C[C@@H](N)c1ccc(C(=O)Nc2ccnc3[nH]ccc23)cc1` + CN(C)S(=O)(=O)c1ccc2c(c1)/C(=C/c1cc3c([nH]1)CCCC3)C(=O)N2 [SU6656] (first compound 0.4 µM, partner dose 0.4 µM), the “cleaved PARP positive nuclei fraction” value amounted to 133%.

In the case of `NC1(c2ccc(-c3nc4ccn5c(=O)[nH]nc5c4cc3-c3ccccc3)cc2)CCC1` + CN(NC(=O)CC(=O)NN(C)C(=S)c1ccccc1)C(=S)c1ccccc1 [STA4783] (first compound 0.4 µM, partner dose 0.006 µM), the “cleaved PARP positive nuclei fraction” value stood at 138%.

As for `Cn1sc(=O)n(Cc2ccccc2)c1=O` + CC(C)(C)c1cnc(CSc2cnc(NC(=O)C3CCNCC3)s2)o1 [SNS-032] (first compound 0.4 µM, partner dose 0.01 µM), the “cleaved PARP positive nuclei fraction” value came out at 91.3%.

As to `Cn1cnc2c(F)c(Nc3ccc(Br)cc3Cl)c(C(=O)NOCCO)cc21` [selumetinib] + COc1cc(N2CCC(N3CCN(C)CC3)CC2)ccc1Nc1ncc(Cl)c(Nc2ccccc2S(=O)(=O)C(C)C)n1 [NVP-TAE684] (first compound 0.015 µM, partner dose 0.08 µM), the “cleaved PARP positive nuclei fraction” value is 105%.

On to `Cn1cnc2c(F)c(Nc3ccc(Br)cc3Cl)c(C(=O)NOCCO)cc21` [selumetinib] + O=S(=O)(c1ccccc1)N(CC(F)(F)F)c1ccc(C(O)(C(F)(F)F)C(F)(F)F)cc1 [T0901317] (first compound 0.015 µM, partner dose 1.4 µM), for which the “cleaved PARP positive nuclei fraction” value stood at 133%.

On to `C[C@@H](N)c1ccc(C(=O)Nc2ccnc3[nH]ccc23)cc1` + c1cc(-c2cnn3cc(-c4ccc(OCCN5CCCCC5)cc4)cnc23)ccn1 [Dorsomorphin] (first compound 0.4 µM, partner dose 0.4 µM), for which the “cleaved PARP positive nuclei fraction” value came out at 98.9%.

For the compound `NC1(c2ccc(-c3nc4ccn5c(=O)[nH]nc5c4cc3-c3ccccc3)cc2)CCC1` + Cn1c(=O)n(-c2ccc(C(C)(C)C#N)cc2)c2c3cc(-c4cnc5ccccc5c4)ccc3ncc21 [NVP-BEZ235] (first compound 0.4 µM, partner dose 0.004 µM), the “cleaved PARP positive nuclei fraction” value came out at 130%.

With `NC(=O)c1ccc(N(C(N)=O)c2c(F)cccc2F)nc1-c1ccc(F)cc1F` + CC(C)(C)c1cnc(CSc2cnc(NC(=O)C3CCNCC3)s2)o1 [SNS-032] (first compound 0.4 µM, partner dose 0.01 µM), the “cleaved PARP positive nuclei fraction” value came to 87.5%.

Consider `C[C@]1(O)C[C@@H](c2nc(-c3ccc4ccc(-c5ccccc5)nc4c3)c3c(N)nccn32)C1` + CNC(=O)c1cc(Oc2ccc(NC(=O)Nc3ccc(Cl)c(C(F)(F)F)c3)cc2)ccn1 [sorafenib] (first compound 0.4 µM, partner dose 0.4 µM), for which the “cleaved PARP positive nuclei fraction” value was 98.8%.

As to `Cn1sc(=O)n(Cc2ccccc2)c1=O` + CCc1ccc(CCOc2ccc(CC3SC(=O)NC3=O)cc2)nc1 [pioglitazone] (first compound 0.4 µM, partner dose 2 µM), the “cleaved PARP positive nuclei fraction” value came out at 108%.

The test system of a further assay is WM451Lu. The assay is described as above. To be noted: library dose: low library concentration; 72 h.
In the case of `Cn1cnc2c(F)c(Nc3ccc(Br)cc3Cl)c(C(=O)NOCCO)cc21` [selumetinib] + COc1ccc(-c2ccc3c(N4CCOCC4)nc(N4C[C@@H](C)O[C@@H](C)C4)nc3n2)cc1CO [KU0063794] (first compound 0.015 µM, partner dose 0.02 µM), the “cleaved PARP positive nuclei fraction” value was determined as 27%.

For the compound `CC1(C)CCC(c2ccc(Cl)cc2)=C(CN2CCN(c3ccc(C(=O)NS(=O)(=O)c4ccc(N[C@H](CCN5CCOCC5)CSc5ccccc5)c(S(=O)(=O)C(F)(F)F)c4)cc3)CC2)C1` + CN(NC(=O)CC(=O)NN(C)C(=S)c1ccccc1)C(=S)c1ccccc1 [STA4783] (first compound 0.4 µM, partner dose 0.006 µM), the “cleaved PARP positive nuclei fraction” value was determined as 89%.

In the case of `NC(=O)c1ccc(N(C(N)=O)c2c(F)cccc2F)nc1-c1ccc(F)cc1F` + C=CCNC1=C2C[C@@H](C)C[C@H](OC)[C@H](O)[C@@H](C)/C=C(\C)[C@H](OC(N)=O)[C@@H](OC)/C=C\C=C(/C)C(=O)NC(=CC1=O)C2=O [Tanespimycin] (first compound 0.4 µM, partner dose 0.002 µM), the “cleaved PARP positive nuclei fraction” value was found to be 46.7%.

Consider `Cn1cnc2c(F)c(Nc3ccc(Br)cc3Cl)c(C(=O)NOCCO)cc21` [selumetinib] + Cn1c(Nc2ccc(C(F)(F)F)cc2)nc2cc(Oc3ccnc(-c4ncc(C(F)(F)F)[nH]4)c3)ccc21 [CHIR265] (first compound 0.015 µM, partner dose 0.08 µM), for which the “cleaved PARP positive nuclei fraction” value worked out at 113%.

`NC(=O)c1ccc(N(C(N)=O)c2c(F)cccc2F)nc1-c1ccc(F)cc1F` + C[C@]1(c2nc3c(C(N)=O)cccc3[nH]2)CCCN1 [Veliparib] (first compound 0.4 µM, partner dose 1.4 µM): the “cleaved PARP positive nuclei fraction” value stood at 19.9%.

For `NC1(c2ccc(-c3nc4ccn5c(=O)[nH]nc5c4cc3-c3ccccc3)cc2)CCC1` + Cn1cc(/C=C2\C(=O)Nc3cccnc32)c2ccccc21 [GW441756] (first compound 0.4 µM, partner dose 0.4 µM), the “cleaved PARP positive nuclei fraction” value came out at 40.1%.

For `CN(c1ncccc1CNc1nc(Nc2ccc3c(c2)CC(=O)N3)ncc1C(F)(F)F)S(C)(=O)=O` + CCN(CC)CCCCNc1ncc2cc(-c3cc(OC)cc(OC)c3)c(NC(=O)NC(C)(C)C)nc2n1 [PD173074] (first compound 0.08 µM, partner dose 0.1 µM), the “cleaved PARP positive nuclei fraction” value came out at 75.6%.

Consider `CC1(C)CCC(c2ccc(Cl)cc2)=C(CN2CCN(c3ccc(C(=O)NS(=O)(=O)c4ccc(N[C@H](CCN5CCOCC5)CSc5ccccc5)c(S(=O)(=O)C(F)(F)F)c4)cc3)CC2)C1` + O=C(O)[C@@H]1[O][Sb](=[O])([O][Sb]2(=[O])[O][C@H]([C@H](O)CO)[C@H](O)[C@H](C(=O)O)[O]2)[O][C@H]([C@H](O)CO)[C@@H]1O [stibogluconate] (first compound 0.4 µM, partner dose 2 µM), for which the “cleaved PARP positive nuclei fraction” value was found to be 105%.

As to `CS(=O)(=O)c1ccc(C(=O)Nc2ccc(Cl)c(-c3ccccn3)c2)c(Cl)c1` [vismodegib] + C#Cc1cccc(Nc2ncnc3cc(OCCOC)c(OCCOC)cc23)c1 [erlotinib] (first compound 1 µM, partner dose 0.8 µM), the “cleaved PARP positive nuclei fraction” value amounted to 93.7%.

On to `CN(c1ncccc1CNc1nc(Nc2ccc3c(c2)CC(=O)N3)ncc1C(F)(F)F)S(C)(=O)=O` + C#Cc1cccc(Nc2ncnc3cc(OCCOC)c(OCCOC)cc23)c1 [erlotinib] (first compound 0.08 µM, partner dose 0.8 µM), for which the “cleaved PARP positive nuclei fraction” value was found to be 242%.

As for `CC1(C)CCC(c2ccc(Cl)cc2)=C(CN2CCN(c3ccc(C(=O)NS(=O)(=O)c4ccc(N[C@H](CCN5CCOCC5)CSc5ccccc5)c(S(=O)(=O)C(F)(F)F)c4)cc3)CC2)C1` + O=C(O)c1ccc2c(c1)nc(Nc1cccc(Cl)c1)c1ccncc12 [CX4945] (first compound 0.4 µM, partner dose 0.4 µM), the “cleaved PARP positive nuclei fraction” value stood at 273%.

As to `COc1ccc(C2=N[C@@H](c3ccc(Cl)cc3)[C@@H](c3ccc(Cl)cc3)N2C(=O)N2CCNC(=O)C2)c(OC(C)C)c1` [Nutlin-3] + COc1cc2c(Oc3ccc4[nH]c(C)cc4c3F)ncnc2cc1OCCCN1CCCC1 [cediranib] (first compound 0.1 µM, partner dose 0.4 µM), the “cleaved PARP positive nuclei fraction” value amounted to 83.7%.

`CC(=O)O[C@@]12CO[C@@H]1C[C@H](O)[C@@]1(C)C(=O)[C@H](O)C3=C(C)[C@@H](OC(=O)[C@H](O)[C@@H](NC(=O)OC(C)(C)C)c4ccccc4)C[C@@](O)([C@@H](OC(=O)c4ccccc4)[C@H]21)C3(C)C` [Docetaxel] + Cn1c(Nc2ccc(C(F)(F)F)cc2)nc2cc(Oc3ccnc(-c4ncc(C(F)(F)F)[nH]4)c3)ccc21 [CHIR265] (first compound 0.0001 µM, partner dose 0.08 µM): the “cleaved PARP positive nuclei fraction” value was 112%.

Regarding `CS(=O)(=O)c1ccc(C(=O)Nc2ccc(Cl)c(-c3ccccn3)c2)c(Cl)c1` [vismodegib] + Nc1ccn([C@@H]2O[C@H](CO)[C@@H](O)C2(F)F)c(=O)n1 [gemcitabine] (first compound 1 µM, partner dose 0.0004 µM), the “cleaved PARP positive nuclei fraction” value was found to be 20.1%.

Take `CCCCCCCCc1ccc(CCC(N)(CO)CO)cc1` [fingolimod] + CCN(CC)CCCCNc1ncc2cc(-c3cc(OC)cc(OC)c3)c(NC(=O)NC(C)(C)C)nc2n1 [PD173074] (first compound 2 µM, partner dose 0.1 µM): the “cleaved PARP positive nuclei fraction” value was determined as 48.6%.

For `COc1ccc(C2=N[C@@H](c3ccc(Cl)cc3)[C@@H](c3ccc(Cl)cc3)N2C(=O)N2CCNC(=O)C2)c(OC(C)C)c1` [Nutlin-3] + Nc1nc(F)nc2c1ncn2[C@@H]1O[C@H](CO)[C@@H](O)[C@@H]1O [fludarabine] (first compound 0.1 µM, partner dose 0.2 µM), the “cleaved PARP positive nuclei fraction” value was determined as 207%.

For `NC(=O)c1ccc(N(C(N)=O)c2c(F)cccc2F)nc1-c1ccc(F)cc1F` + CS(=O)(=O)CCNCc1ccc(-c2ccc3ncnc(Nc4ccc(OCc5cccc(F)c5)c(Cl)c4)c3c2)o1 [lapatinib] (first compound 0.4 µM, partner dose 0.8 µM), the “cleaved PARP positive nuclei fraction” value was determined as 98.6%.

For the compound `NC1(c2ccc(-c3nc4ccn5c(=O)[nH]nc5c4cc3-c3ccccc3)cc2)CCC1` + C=C(c1ccc(C(=O)O)cc1)c1cc2c(cc1C)C(C)(C)CCC2(C)C [Bexarotene] (first compound 0.4 µM, partner dose 2 µM), the “cleaved PARP positive nuclei fraction” value is 153%.

As to `Cn1cnc2c(F)c(Nc3ccc(Br)cc3Cl)c(C(=O)NOCCO)cc21` [selumetinib] + O=C(Nc1cccc(Cl)c1)Nc1ncc(CCNc2ncnc3ccsc23)s1 [SNS314] (first compound 0.015 µM, partner dose 0.0008 µM), the “cleaved PARP positive nuclei fraction” value was found to be 107%.
